Measured values as given in PMC12687333.
No constants are given. Whether binding was seen depends on the method and setting. In cells and extracts the contact can be indirect. Some binding calls cover weakened binding; strength is not graded here.

Sequences of proteins named here, by UniProt entry; tags and fusion partners are left off.
UniProt Q61412: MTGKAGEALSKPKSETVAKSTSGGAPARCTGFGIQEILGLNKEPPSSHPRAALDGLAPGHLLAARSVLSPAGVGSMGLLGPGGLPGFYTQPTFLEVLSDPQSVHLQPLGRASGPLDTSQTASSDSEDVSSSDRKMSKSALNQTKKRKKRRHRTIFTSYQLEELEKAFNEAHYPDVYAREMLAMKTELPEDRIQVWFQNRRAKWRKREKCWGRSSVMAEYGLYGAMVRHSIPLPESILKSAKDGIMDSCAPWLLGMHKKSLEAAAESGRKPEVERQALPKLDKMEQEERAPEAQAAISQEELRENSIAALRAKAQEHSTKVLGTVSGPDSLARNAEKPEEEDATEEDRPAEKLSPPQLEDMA
UniProt P58304: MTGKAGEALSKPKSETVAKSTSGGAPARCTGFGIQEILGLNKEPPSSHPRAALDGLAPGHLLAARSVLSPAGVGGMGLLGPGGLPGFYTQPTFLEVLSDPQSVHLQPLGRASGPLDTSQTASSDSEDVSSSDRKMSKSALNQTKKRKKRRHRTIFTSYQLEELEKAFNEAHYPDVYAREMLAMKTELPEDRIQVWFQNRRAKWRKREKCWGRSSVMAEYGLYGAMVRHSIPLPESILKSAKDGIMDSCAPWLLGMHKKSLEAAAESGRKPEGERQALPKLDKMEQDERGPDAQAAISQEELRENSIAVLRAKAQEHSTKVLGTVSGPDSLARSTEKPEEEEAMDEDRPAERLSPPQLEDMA
UniProt P48432: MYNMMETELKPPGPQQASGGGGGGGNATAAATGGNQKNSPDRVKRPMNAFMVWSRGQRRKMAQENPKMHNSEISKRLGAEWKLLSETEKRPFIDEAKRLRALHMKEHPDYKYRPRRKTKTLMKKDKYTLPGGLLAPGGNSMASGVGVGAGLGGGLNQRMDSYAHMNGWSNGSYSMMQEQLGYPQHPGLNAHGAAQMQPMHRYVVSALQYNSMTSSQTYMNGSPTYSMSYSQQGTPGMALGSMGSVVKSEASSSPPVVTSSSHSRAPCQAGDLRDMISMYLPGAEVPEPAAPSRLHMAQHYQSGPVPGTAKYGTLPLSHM
UniProt P48431: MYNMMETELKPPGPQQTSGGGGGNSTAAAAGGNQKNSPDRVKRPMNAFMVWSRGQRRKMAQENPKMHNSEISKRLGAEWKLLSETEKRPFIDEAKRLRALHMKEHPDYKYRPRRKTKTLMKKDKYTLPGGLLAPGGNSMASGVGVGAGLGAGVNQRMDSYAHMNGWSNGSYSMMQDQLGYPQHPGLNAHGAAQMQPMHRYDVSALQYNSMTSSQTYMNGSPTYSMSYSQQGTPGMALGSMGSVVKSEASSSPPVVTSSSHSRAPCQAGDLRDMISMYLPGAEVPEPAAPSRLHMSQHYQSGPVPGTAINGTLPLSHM

What was measured:
[1] = target: VSX2 (endogenous, mouse P0 retina) (mouse (endogenous in C57BL/6J P0 retinae)) (UniProt Q61412); experiment: co-IP; endogenous, reciprocal IPs; native lysates of C57BL/6J P0 retinae in co-IP buffer (PBS, 10% glycerol, 0.6% Triton X-100); specific antibodies or control IgG overnight at 4°C; protein G magnetic beads; western blot
[2] = target: VSX2 (human) (UniProt P58304); experiment: co-IP; lysates of HEK-293T cells co-expressing VSX2 and SOX2; lysis in 300 mM NaCl, 1% NP-40 buffer diluted with an equal volume of no-salt buffer; 500 ug protein with primary antibody overnight at 4°C; protein G magnetic beads; washes in 150 mM NaCl buffer; western blot

Row | Substance | binding [1] | binding [2]
1 | SOX2 (endogenous, mouse P0 retina) (from UniProt P48432 1-319) | binds | –
2 | SOX2 (from UniProt P48431 1-317) | – | binds
